Data on 29 molecules can be found in the supplement of paper PMC8256030.

Molecules are shown by their SMILES. Where “and” joins values, the source holds several entries; their conditions need not be identical. Equal values may be shown once. The list shows a part of the results. This data set is noisy: repeats of one test often differ as much as different tests do.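 HEK293T cells were given each compound shortly before transfection with a reporter in which red mCherry is followed by the SARS-CoV-2 frameshift element and then GFP in the −1 frame, so GFP appears only after frameshifting.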

In test [1] the test system is SARS-CoV-2 -1 PRF reporter mCherry-FSE-GFP(-1). The test is described as follows: mCherry (red) intensity as percent of control; higher = higher upstream reporter expression. The note with it: 10 µM; 24 h; HEK293T.
The test system is the same in test [2]. The test is described as follows: percent effect, decrease of GFP/mCherry ratio (-1 PRF reporter) relative to controls; higher = stronger frameshift inhibition. The note with it: 10 µM; 24 h; HEK293T.

Turning to `CCN(CCCc1ccccc1)CCCc1ccccc1`, the mCherry in test [1] is 64.6%. The percent effect in test [2] was -3.65%.
With `CC(=O)Nc1ncc([N+](=O)[O-])s1` [aminitrozole], the mCherry in test [1] worked out at 107%. Besides, the percent effect in test [2] is -1.1%.
Consider `Cc1cc(=O)c(C(=O)N[C@@H](C(=O)N[C@@H]2C(=O)N3C(C(=O)O)=C(CSc4nnnn4C)CS[C@H]23)c2ccc(O)cc2)c[nH]1`, for which the mCherry in test [1] was determined as 104%. Moreover, the percent effect in test [2] was -4.01%.
With `CC[C@H]1OC(=O)[C@H](C)[C@@H](O[C@H]2C[C@@](C)(OC)[C@@H](O)[C@H](C)O2)[C@H](C)[C@@H](O[C@@H]2O[C@H](C)C[C@H](N(C)C)[C@H]2O)[C@](C)(O)C[C@@H](C)/C(=N\OCOCCOC)[C@H](C)[C@@H](O)[C@]1(C)O` [Roxithromycin], in test [1], the mCherry came out at 111%. The percent effect in test [2] was 3.88%.
Consider `Nc1ccc(S(=O)(=O)NC(=O)c2ccccc2)cc1` [sulfabenzamide], for which the mCherry in test [1] was found to be 88.6%. Further, the percent effect in test [2] is -5.77%.
For `CN(C)CCn1nnnc1SCC1=C(C(=O)O)N2C(=O)[C@@H](NC(=O)Cc3csc(N)n3)[C@H]2SC1` [Pansporin] the same measures were 103% and -3.56%.
In turn, `CC(C)(O/N=C(\C(=O)N[C@@H]1C(=O)N2C(C(=O)[O-])=C(C[n+]3ccccc3)CS[C@H]12)c1csc(N)n1)C(=O)O` yielded a mCherry in test [1] of 84.7%. In test [2], the percent effect was -4.16%.
`CCCNC(C)C(=O)Nc1c(C)csc1C(=O)OC` (stereo not drawn) [Articaine] yielded a mCherry in test [1] of 92.3%. The percent effect in test [2] is -7.49%.
`COc1cc2c3cc1Oc1cc(ccc1O)C[C@@H]1c4c(cc(OC)c(O)c4Oc4ccc(cc4)C[C@@H]3N(C)CC2)CC[N+]1(C)C` [(+)-Tubocuraraine chloride] gave a mCherry in test [1] of 107%. Moreover, in test [2], the percent effect came to 1.19%.
In test [1], `CC1(C)S[C@@H]2[C@H](NC(=O)[C@H](N)c3ccccc3)C(=O)N2[C@H]1C(=O)O` [Ampicillin] displayed a mCherry of 76.3%. For the same molecule, in test [2], the percent effect was -6.05%.
The matching figures for `COc1ccc2cc1Oc1cc3c(cc1OC)CC[N+](C)(C)[C@H]3Cc1ccc(cc1)Oc1c(OC)c(OC)cc3c1[C@@H](C2)[N+](C)(C)CC3` [Metubine]: 107% and -4.71%.
For `C=CCCCCCCCCC(=O)O` the same measures were 98.2% and -1.99%.
In test [1], `C[C@H]1C[C@H]2[C@@H]3CCC4=CC(=O)C=C[C@]4(C)[C@@]3(Cl)[C@@H](O)C[C@]2(C)[C@@]1(O)C(=O)CO` [beclometasone] gave a mCherry of 105%. Also, the percent effect in test [2] is -1.41%.
On to `O=C(O)Cc1ccc(-c2ccccc2)cc1` [felbinac], for which the mCherry in test [1] came out at 98.3%. The percent effect in test [2] was -2.34%.
The matching figures for `COc1cc(C)c2c(Oc3cccc(C(F)(F)F)c3)c(OC)cc(NC(C)CCCN)c2n1` (stereo not drawn) [tafenoquine]: 97.4% and -15.8%.
`Cc1ccccc1N1C(=O)c2cc(S(N)(=O)=O)c(Cl)cc2NC1C` (stereo not drawn) [metolazone] gave a mCherry in test [1] of 101%. Further, in test [2], the percent effect was -7.19%.
For `COCCOC(=O)C1=C(C)NC(C)=C(C(=O)OC/C=C/c2ccccc2)C1c1cccc([N+](=O)[O-])c1` (stereo not drawn) [Cilnidipine] the same measures were 89% and 2.49%.
Turning to `CC(=O)N(CC(O)CO)c1c(I)c(C(=O)NCC(O)CO)c(I)c(C(=O)NCC(O)CO)c1I` (stereo not drawn) [iohexol], in test [1], the mCherry amounted to 111%. The percent effect in test [2] was -1.37%.
As to `O=C(NC[C@H]1CN(c2ccc(N3CCOCC3=O)cc2)C(=O)O1)c1ccc(Cl)s1` [rivaroxaban], the mCherry in test [1] stood at 94.3%. The percent effect in test [2] was -3.2%.
As to `COc1ccc(CC(C)(C)NC[C@H](O)c2cc(O)cc3c2OCC(=O)N3)cc1` [Olodaterol], the mCherry in test [1] was 97.3% and 102%. Further, the percent effect in test [2] was -6.66% and -0.201%.
For `COc1ccc(Cl)cc1C(=O)NCCc1ccc(S(=O)(=O)NC(=O)NC2CCCCC2)cc1` [glibenclamide], the mCherry in test [1] is 106% and 95.4%. The percent effect in test [2] was 4.09% and 1.06%.
Molecule `CS(=O)(=O)CCNCc1ccc(-c2ccc3ncnc(Nc4ccc(OCc5cccc(F)c5)c(Cl)c4)c3c2)o1` [lapatinib] came in with a mCherry in test [1] of 67.8%. The percent effect in test [2] was -4.96%.
In turn, `NCCS` showed a mCherry in test [1] of 105%. Also, the percent effect in test [2] is -5.14%.
For `O=C(NCCN1CCN(c2ncccn2)CC1)C12CC3CC(CC(C3)C1)C2` [adatanserin] the same measures were 110% and -10.4%.
The matching figures for `COc1ccccc1N1CCN(CCCNc2cc(=O)n(C)c(=O)n2C)CC1` [urapidil]: 113% and -1.59%.
Take `CCCCCCCCCCCCCCCC(=O)NCCO` [palmidrol]: the mCherry in test [1] came to 85.6%. The percent effect in test [2] was -5.54%.
Regarding `C[C@@H](O)[C@H]1C(=O)N2C(C(=O)O)=C(S[C@@H]3CN[C@H](C(=O)N(C)C)C3)[C@H](C)[C@H]12` [meropenem], the mCherry in test [1] worked out at 87%. In addition, the percent effect in test [2] was 0.333%.
The molecule `O=C1[C@@H]2[C@H]3CC[C@H](C3)[C@@H]2C(=O)N1C[C@@H]1CCCC[C@H]1CN1CCN(c2nsc3ccccc23)CC1` [lurasidone] yielded a mCherry in test [1] of 90.6%. Besides, the percent effect in test [2] amounted to 0.846%.
The matching figures for `CC(C)[C@H]1CC[C@H](C(=O)N[C@H](Cc2ccccc2)C(=O)O)CC1`: 90.1% and -2.18%.
